Hit rate of the full screen: of about 53,000 sequences, about 3,700 (7%) were called active.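 How the source made its calls: active means gene knockdowns whose robust z-score for IL-1 alpha signal is at least 2 or at most -2, so actives lie on both sides; inactive means the rest.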 This is one part of the list.
Experiment: Components of the Cytosolic LPS Sensing Pathway: Gene Identification via Genome-wide siRNA Screen;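 further: robust z of the log signal after scaling to non-targeting control siRNA wells of the plate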
Settings: RAW264.7 macrophages, IL-1a HTRF, actives lie on both sides, screened at 100 nM (by protocol), cells primed 5 h with Pam3CSK4 first
Method in brief: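 Using IL-1a HTRF as read-out, the screen measured release from RAW264.7 cells after 48h siRNA knockdown (100 nM), 5 h Pam3CSK4 priming and 24 h cytosolic LipidA. Values were expressed relative to negative-control wells as robust z-scores.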

Sequence | z-score
CGUUCUAUUCUUGACAACATT against Znf41-ps | inactive: 0.265
CCAUGUCUUGAACUUGGAUTT against Tsks | inactive: 0.793
GCCUAAAACUGCUUUGUAATT against Ccdc97 | inactive: -0.259
GGACCAGAUAACUGCCAAATT against Kif5c | inactive: -0.0347
GGUAGUGAGUACUUUGGAATT against Amy2a5 | inactive: -1.16
GACAAGACAAGUUUUGGUATT against Elmo1 | inactive: -0.442
GGCCAGUUACUUUCUGAAATT against Atp11b | inactive: 1.01
GGAAAUUAAACAGAAACAGTT against Ube2j2 | inactive: -0.471
GCGUAAAGUAAAACAGCUUTT against Nop14 | inactive: 0.818
GGUCAAAGGAAAAAAAUGGTT against Zfp30 | inactive: 1.14
GGCCAUUAAAAACACGGUATT against Eogt | inactive: 1.46
GCGAUUUCUCUAAAUGGCUTT against Rubcnl | inactive: -0.568
GGCAAAAACCAGGAUGAAUTT against Ubap2l | inactive: -0.726
GGCACUCGACAGAACAACUTT against Scamp3 | inactive: -0.56
GGACGUGAGACUUCUUCAGTT against Prr3 | inactive: 0.0189
GCCACUCACAUUAAAUUACTT against Mthfd1 | inactive: -1.09
CCUACAACUAUAAAAGAUGTT against Sp3 | inactive: -0.602
GCGAUAAAGCCAACACACCTT against Nostrin | inactive: -0.346
GCUAAUAACUUUUCAGUGATT against Olfr381 | inactive: 0.549
CCUUUAAUACACUCUUCAATT against Cyp2a12 | inactive: -0.337
GGUAUCACCAUAGAAUUGUTT against Rnf114 | inactive: -0.0623
CGAAGAUCUUAUCAGUAUATT against Cdh7 | inactive: 0.823
GGCAGAAGUUAGCAUAAAUTT against Tbl1xr1 | inactive: 0.916
GGAAGUGGAAUCCUACAAGTT against Celsr2 | inactive: 0.944
GGCAGUAGACACAAACAGATT against Plxdc2 | inactive: 0.791
CCUGCAAUACCUACUACCATT against Prss32 | inactive: -0.0732
GCUUAAAAGUGAAGUCUUGTT against Tmem203 | inactive: -0.615
GGUGUCAGAGUUAAGACAATT against Myocd | inactive: 1.04
CCACUUUCAACUUUCCGCATT against Fgd5 | inactive: -1.94

Looked up one by one from the entries so far (two):
Sequence | z-score
GCUUAAAAGUGAAGUCUUGTT against Tmem203 | inactive: -0.615
CCAUGUCUUGAACUUGGAUTT against Tsks | inactive: 0.793

Source: PubChem BioAssay AID1508600 (Functional Genomics Laboratory (NCATS/FGL), 2020)
